Measurements taken from PubChem BioAssay AID248 (DTP/NCI, 2004).
The list shows only some results of the screen, not a fair sample: it gathers tests that were run many times, whatever their T/C, doses with no T/C, and many T/C values between a quarter and a half above the control. Other doses and runs of a compound stand elsewhere. T/C is the treated group as % of the vehicle group. Some doses have a count of surviving animals in place of a T/C: the source holds a T/C of zero for them, seemingly a mark for toxic or unscored doses. Some survivor counts are full or nearly so, which does not show that the dose was tolerated: survival well below the control is almost never listed, so the zero probably covers shortened survival too. Survivors were counted at the toxicity check, usually on the fifth day, unless a day is given; later deaths do not show. Schedules are NCI's codes, taken here to give the interval after Q, in days (D) or hours (H), and the number of doses after X. Some entries were tested several times; their values stand side by side, smallest first. Where survival is the endpoint, the PubChem record calls one and a half times the control and up active, and a quarter to a half above the control has no call in these data; cut-offs in other NCI protocols can differ. Brackets with × count equal records among those shown. Some T/C values are followed by the survivors on the day toxicity was checked, most often the fifth; where none is given, no animal had died by that day.

System: L1210 leukemia ip in BDF1 mice, survival T/C
Test: NCI In Vivo Anticancer Drug Screen. Data for tumor model L1210 Leukemia (intraperitoneal) in B6D2F1 (BDF1) mice
Details: vehicle: saline, higher T/C = longer survival
[1] = T/C endpoint: mean survival time, dose: 6.25 mg/kg/injection, schedule: Q01DX009 (ip)
[2] = T/C endpoint: mean survival time, dose: 12.5 mg/kg/injection, schedule: Q01DX009 (ip)
[3] = T/C endpoint: mean survival time, dose: 25.0 mg/kg/injection, schedule: Q01DX009 (ip)

## N[C@H](C(=O)O)[C@@H]1CC(Cl)=NO1
T/C endpoint: mean survival time, dose: 0.2 mg/kg/injection, schedule: Q03HX024 (ip)
  T/C: 143 % of control [7 of 8 alive]
T/C endpoint: mean survival time, dose: 0.39 mg/kg/injection, schedule: Q01DX009 (ip)
  T/C: 105 (2×), 107, 111 (2×), 113, 116, 118, 125 % of control
T/C endpoint: mean survival time, dose: 0.39 mg/kg/injection, schedule: Q03HX008 (ip)
  T/C: 132 % of control
T/C endpoint: mean survival time, dose: 0.78 mg/kg/injection, schedule: Q01DX009 (ip)
  T/C: 107, 110, 115, 118, 120, 121, 127 (2×), 128, 130 (3×), 131, 133 (3×), 135 % of control
T/C endpoint: mean survival time, dose: 0.78 mg/kg/injection, schedule: Q01DX009 (oral)
  T/C: 130 % of control
T/C endpoint: mean survival time, dose: 0.78 mg/kg/injection, schedule: Q01DX009 (sc)
  T/C: 127 and 133 % of control
T/C endpoint: mean survival time, dose: 0.78 mg/kg/injection, schedule: Q03HX008 (ip)
  T/C: 136 % of control
T/C endpoint: mean survival time, dose: 1.56 mg/kg/injection, schedule: Q01DX009 (ip)
  T/C: 124, 126 (2×), 129, 131 (2×), 134 (2×), 138, 139, 141, 142, 145, 146, 149, 150, 152 % of control
T/C endpoint: mean survival time, dose: 1.56 mg/kg/injection, schedule: Q01DX009 (oral)
  T/C: 139 % of control
T/C endpoint: mean survival time, dose: 1.56 mg/kg/injection, schedule: Q01DX009 (sc)
  T/C: 135 and 148 % of control
T/C endpoint: mean survival time, dose: 1.56 mg/kg/injection, schedule: Q03HX008 (ip)
  T/C: 143 % of control
T/C endpoint: mean survival time, dose: 1.56 mg/kg/injection, schedule: Q04DX003 (ip)
  T/C: 128 % of control
T/C endpoint: mean survival time, dose: 2.0 mg/kg/injection, schedule: Q01DX009 (ip)
  T/C: 137 % of control (2×)
T/C endpoint: mean survival time, dose: 3.12 mg/kg/injection, schedule: Q01DX009 (ip)
  T/C: 107, 109, 123, 131, 134 (3×), 134 [5 of 6 alive], 137, 141 (2×), 146, 150, 154, 156, 158, 163, 171 % of control
T/C endpoint: mean survival time, dose: 3.12 mg/kg/injection, schedule: Q01DX009 (sc)
  T/C: 133 and 148 % of control
T/C endpoint: mean survival time, dose: 3.12 mg/kg/injection, schedule: Q03HX008 (ip)
  T/C: 143 % of control
T/C endpoint: mean survival time, dose: 3.12 mg/kg/injection, schedule: Q04DX003 (ip)
  T/C: 125 % of control
T/C endpoint: mean survival time, dose: 3.13 mg/kg/injection, schedule: Q01DX009 (ip)
  T/C: 136 % of control
T/C endpoint: mean survival time, dose: 4.0 mg/kg/injection, schedule: Q01DX009 (ip)
  T/C: 142 % of control
[1]
  T/C: 93, 95, 96, 100 [5 of 6 alive], 117, 127, 130, 141, 143, 146, 150 (2×), 155, 158, 164, 166, 168 % of control
  survivor count: 5 of 6 and 6 of 6
T/C endpoint: mean survival time, dose: 6.25 mg/kg/injection, schedule: Q03HX008 (ip)
  T/C: 147 % of control
T/C endpoint: mean survival time, dose: 6.25 mg/kg/injection, schedule: Q04DX003 (ip)
  T/C: 131 % of control
[2]
  T/C: 92, 93, 97 [5 of 6 alive], 106, 124, 127, 132, 145, 161 [5 of 6 alive], 164, 169, 174, 191 % of control
  survivor count: 6 of 6 and 8 of 8
T/C endpoint: mean survival time, dose: 12.5 mg/kg/injection, schedule: Q01DX009 (oral)
  survivor count: 6 of 6
T/C endpoint: mean survival time, dose: 12.5 mg/kg/injection, schedule: Q03HX008 (ip)
  T/C: 148 % of control
T/C endpoint: mean survival time, dose: 12.5 mg/kg/injection, schedule: Q04DX003 (ip)
  T/C: 146 % of control
T/C endpoint: mean survival time, dose: 12.8 mg/kg/injection, schedule: Q01DX009 (ip)
  survivor count: 8 of 8
T/C endpoint: mean survival time, dose: 16.0 mg/kg/injection, schedule: Q01DX009 (ip)
  T/C: 132 % of control
T/C endpoint: mean survival time, dose: 25.0 mg/kg/injection, schedule: Q01DX001 (ip)
  T/C: 125 % of control
[3]
  T/C: 86, 111, 120, 124, 137, 158, 180, 186 % of control
  survivor count: 4 of 6, 5 of 6, 6 of 6, 8 of 8
T/C endpoint: mean survival time, dose: 25.0 mg/kg/injection, schedule: Q01DX009 (oral)
  survivor count: 5 of 6
T/C endpoint: mean survival time, dose: 25.0 mg/kg/injection, schedule: Q04DX003 (ip)
  T/C: 146 % of control
T/C endpoint: mean survival time, dose: 50.0 mg/kg/injection, schedule: Q01DX001 (ip)
  T/C: 126 % of control
T/C endpoint: mean survival time, dose: 50.0 mg/kg/injection, schedule: Q01DX009 (ip)
  survivor count: 6 of 6
T/C endpoint: mean survival time, dose: 50.0 mg/kg/injection, schedule: Q01DX009 (oral)
  survivor count: 4 of 6 and 6 of 8
T/C endpoint: mean survival time, dose: 50.0 mg/kg/injection, schedule: Q04DX003 (ip)
  T/C: 147 % of control
T/C endpoint: mean survival time, dose: 100.0 mg/kg/injection, schedule: Q01DX001 (ip)
  T/C: 129 % of control
T/C endpoint: mean survival time, dose: 100.0 mg/kg/injection, schedule: Q04DX003 (ip)
  T/C: 134 % of control
T/C endpoint: mean survival time, dose: 200.0 mg/kg/injection, schedule: Q01DX001 (ip)
  T/C: 148 % of control
T/C endpoint: median survival time, dose: 0.19 mg/kg/injection, schedule: Q03HX024 (ip)
  T/C: 148 % of control
T/C endpoint: median survival time, dose: 0.39 mg/kg/injection, schedule: Q01DX009 (ip)
  T/C: 138 % of control
T/C endpoint: median survival time, dose: 0.39 mg/kg/injection, schedule: Q03HX008 (ip)
  T/C: 125 % of control
